Results published in the M2OR odorant receptor database.
Positions count from the first letter of the chain named. The list shows a part of the results, in another mix than the full data. Calls are pooled over several reports, among them a noisy single-well screen. The list shows a part of the results. The list shows a part of the results.

Chains of the proteins cited; added tags and fusions are not shown. A line that says so, or that is headed by a name, gives the form on record, which may keep a tag or linker.
OR5H1, as listed by the source: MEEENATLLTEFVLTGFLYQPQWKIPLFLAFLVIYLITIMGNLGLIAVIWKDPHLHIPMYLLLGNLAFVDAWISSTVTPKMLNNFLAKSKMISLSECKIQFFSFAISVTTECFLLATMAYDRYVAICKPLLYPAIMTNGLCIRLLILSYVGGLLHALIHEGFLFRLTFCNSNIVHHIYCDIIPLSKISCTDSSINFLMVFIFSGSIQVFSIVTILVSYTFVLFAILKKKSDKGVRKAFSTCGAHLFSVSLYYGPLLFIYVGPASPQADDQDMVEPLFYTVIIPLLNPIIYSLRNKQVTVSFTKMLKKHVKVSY

How the values were obtained:
Conditions in all cases: stereoisomer not certain
[1] = target: T1, OR5AN1 (Homo sapiens) (UniProt Q8NGI8)
T1 sequence (whole entry): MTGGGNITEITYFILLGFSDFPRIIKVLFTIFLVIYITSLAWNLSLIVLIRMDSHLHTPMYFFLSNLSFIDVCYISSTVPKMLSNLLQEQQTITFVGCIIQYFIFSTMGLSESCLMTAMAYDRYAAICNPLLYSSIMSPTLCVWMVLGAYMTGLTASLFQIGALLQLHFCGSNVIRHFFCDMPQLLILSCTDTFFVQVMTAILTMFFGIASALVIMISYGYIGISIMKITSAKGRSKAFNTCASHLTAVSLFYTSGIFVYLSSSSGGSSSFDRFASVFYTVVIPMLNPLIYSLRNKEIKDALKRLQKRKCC
How it was run: (§1)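 Whether a receptor–molecule pair is responsive (active) rests on the original authors' judgment that its measured signal was statistically different from baseline. Pairs without that judgment are non-responsive (inactive). Sources used varied assay methods, commonly transient luciferase assays in mammalian cell lines.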

[2] = target: T2, OR5AR1 (Homo sapiens) (UniProt Q8NGP9)
T2 sequence (whole entry): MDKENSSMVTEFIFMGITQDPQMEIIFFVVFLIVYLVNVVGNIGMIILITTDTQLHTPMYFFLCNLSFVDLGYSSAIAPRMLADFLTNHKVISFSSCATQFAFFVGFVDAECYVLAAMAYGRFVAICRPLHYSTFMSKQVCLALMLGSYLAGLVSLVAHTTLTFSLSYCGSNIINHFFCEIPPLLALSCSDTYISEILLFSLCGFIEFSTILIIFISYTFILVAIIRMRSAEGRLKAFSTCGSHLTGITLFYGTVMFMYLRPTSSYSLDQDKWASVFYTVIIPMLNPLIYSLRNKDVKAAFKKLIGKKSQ
How it was run: as §1

[3] = target: T3, OR5AS1 (Homo sapiens) (UniProt Q8N127)
T3 sequence (whole entry): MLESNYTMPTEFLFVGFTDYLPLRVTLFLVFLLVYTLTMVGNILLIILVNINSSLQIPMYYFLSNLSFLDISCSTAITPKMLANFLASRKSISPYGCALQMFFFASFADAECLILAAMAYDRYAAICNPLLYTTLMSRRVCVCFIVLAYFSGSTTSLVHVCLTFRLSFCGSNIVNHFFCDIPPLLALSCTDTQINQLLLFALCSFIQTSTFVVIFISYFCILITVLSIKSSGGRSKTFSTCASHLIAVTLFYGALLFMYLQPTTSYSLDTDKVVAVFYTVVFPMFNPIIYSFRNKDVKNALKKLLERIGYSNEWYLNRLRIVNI
How it was run: as §1

[4] = target: T4, OR5AU1 (Homo sapiens) (UniProt Q8NGC0)
T4 sequence (whole entry): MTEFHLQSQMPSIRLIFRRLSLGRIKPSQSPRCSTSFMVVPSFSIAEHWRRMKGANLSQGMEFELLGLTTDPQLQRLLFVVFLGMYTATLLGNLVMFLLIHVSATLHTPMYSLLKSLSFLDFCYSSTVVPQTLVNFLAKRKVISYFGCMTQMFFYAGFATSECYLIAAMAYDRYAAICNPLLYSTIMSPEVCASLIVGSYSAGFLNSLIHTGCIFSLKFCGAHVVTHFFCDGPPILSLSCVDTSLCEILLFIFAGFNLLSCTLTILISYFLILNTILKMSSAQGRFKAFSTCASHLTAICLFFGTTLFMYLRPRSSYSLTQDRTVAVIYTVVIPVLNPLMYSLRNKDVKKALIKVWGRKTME
How it was run: as §1

[5] = target: T5, OR5B17 (Homo sapiens) (UniProt Q8NGF7)
T5 sequence (whole entry): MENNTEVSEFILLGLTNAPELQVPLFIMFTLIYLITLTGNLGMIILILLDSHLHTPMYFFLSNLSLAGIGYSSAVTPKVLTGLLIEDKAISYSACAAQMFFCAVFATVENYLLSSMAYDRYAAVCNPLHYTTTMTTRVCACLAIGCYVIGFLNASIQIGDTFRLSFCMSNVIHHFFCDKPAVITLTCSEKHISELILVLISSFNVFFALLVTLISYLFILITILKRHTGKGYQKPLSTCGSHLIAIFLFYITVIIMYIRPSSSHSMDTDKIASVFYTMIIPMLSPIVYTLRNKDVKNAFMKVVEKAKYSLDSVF
How it was run: as §1

[6] = system: T6, OR5B2
T6 sequence (whole entry): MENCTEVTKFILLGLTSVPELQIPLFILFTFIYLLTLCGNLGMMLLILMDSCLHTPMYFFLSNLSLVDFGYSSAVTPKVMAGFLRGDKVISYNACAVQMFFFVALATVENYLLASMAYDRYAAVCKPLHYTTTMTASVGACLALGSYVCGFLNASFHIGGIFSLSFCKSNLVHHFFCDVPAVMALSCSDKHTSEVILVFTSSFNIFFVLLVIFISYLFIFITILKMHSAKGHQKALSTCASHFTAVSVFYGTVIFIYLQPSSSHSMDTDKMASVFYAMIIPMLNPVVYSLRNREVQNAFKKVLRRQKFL
How it was run: as §1

[7] = target: T7, OR5B3 (Homo sapiens) (UniProt Q8NH48)
T7 sequence (whole entry): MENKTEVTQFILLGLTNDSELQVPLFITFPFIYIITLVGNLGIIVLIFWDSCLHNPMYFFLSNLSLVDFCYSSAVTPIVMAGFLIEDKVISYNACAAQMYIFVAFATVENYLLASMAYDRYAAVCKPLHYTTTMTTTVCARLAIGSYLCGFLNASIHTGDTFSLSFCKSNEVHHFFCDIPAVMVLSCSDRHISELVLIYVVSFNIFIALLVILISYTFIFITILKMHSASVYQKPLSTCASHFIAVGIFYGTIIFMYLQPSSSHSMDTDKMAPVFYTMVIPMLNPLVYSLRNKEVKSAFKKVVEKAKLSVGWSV
How it was run: as §1

[8] = system: T8, OR5BC
T8 sequence (whole entry): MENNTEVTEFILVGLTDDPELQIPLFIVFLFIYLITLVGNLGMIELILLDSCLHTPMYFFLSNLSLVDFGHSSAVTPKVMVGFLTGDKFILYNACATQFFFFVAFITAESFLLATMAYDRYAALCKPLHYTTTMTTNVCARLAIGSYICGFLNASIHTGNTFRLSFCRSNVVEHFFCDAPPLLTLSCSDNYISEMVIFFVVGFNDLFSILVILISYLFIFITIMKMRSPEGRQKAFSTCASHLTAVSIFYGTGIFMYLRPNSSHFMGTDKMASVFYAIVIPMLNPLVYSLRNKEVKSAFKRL
How it was run: as §1

[9] = system: T9, OR5BL
T9 sequence (whole entry): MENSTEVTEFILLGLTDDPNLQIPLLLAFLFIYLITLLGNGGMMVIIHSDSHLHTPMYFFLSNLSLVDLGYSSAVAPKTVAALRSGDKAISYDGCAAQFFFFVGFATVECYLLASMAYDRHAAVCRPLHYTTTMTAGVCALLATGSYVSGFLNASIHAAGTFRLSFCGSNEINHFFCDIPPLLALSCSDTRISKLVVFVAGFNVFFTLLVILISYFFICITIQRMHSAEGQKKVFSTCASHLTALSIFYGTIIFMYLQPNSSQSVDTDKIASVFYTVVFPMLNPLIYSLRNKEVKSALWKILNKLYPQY
How it was run: as §1

[10] = target: T10, OR5C1 (Homo sapiens) (UniProt Q8NGR4)
T10 sequence (whole entry): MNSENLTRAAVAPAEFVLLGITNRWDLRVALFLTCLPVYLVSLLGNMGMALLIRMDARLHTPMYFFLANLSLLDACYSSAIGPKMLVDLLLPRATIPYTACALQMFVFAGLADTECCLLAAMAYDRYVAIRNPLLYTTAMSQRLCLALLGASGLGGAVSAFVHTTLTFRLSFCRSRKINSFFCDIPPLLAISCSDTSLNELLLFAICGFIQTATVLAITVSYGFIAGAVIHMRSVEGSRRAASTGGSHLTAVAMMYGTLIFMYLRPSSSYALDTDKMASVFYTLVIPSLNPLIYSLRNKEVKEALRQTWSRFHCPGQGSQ
How it was run: as §1

[11] = system: T11, OR5DD
T11 sequence (whole entry): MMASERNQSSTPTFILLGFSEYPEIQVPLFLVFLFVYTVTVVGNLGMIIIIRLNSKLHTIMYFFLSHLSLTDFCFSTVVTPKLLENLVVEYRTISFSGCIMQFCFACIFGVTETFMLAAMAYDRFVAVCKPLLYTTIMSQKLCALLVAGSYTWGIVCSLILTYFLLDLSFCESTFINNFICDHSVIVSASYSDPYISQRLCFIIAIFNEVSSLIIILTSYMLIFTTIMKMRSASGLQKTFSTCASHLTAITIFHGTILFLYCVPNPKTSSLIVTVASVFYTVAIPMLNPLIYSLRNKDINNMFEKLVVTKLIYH
How it was run: as §1

[12] = system: T12, OR5DE
T12 sequence (whole entry): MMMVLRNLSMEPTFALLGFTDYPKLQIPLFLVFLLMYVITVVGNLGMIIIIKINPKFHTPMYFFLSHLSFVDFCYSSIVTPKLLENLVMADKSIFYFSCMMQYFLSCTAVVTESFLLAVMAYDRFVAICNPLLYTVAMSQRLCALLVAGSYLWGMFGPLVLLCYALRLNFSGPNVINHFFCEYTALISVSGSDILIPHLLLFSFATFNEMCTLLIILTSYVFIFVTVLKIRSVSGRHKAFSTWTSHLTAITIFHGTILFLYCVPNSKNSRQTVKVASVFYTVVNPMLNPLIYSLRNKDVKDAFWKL
How it was run: as §1

[13] = system: T13, OR5DG
T13 sequence (whole entry): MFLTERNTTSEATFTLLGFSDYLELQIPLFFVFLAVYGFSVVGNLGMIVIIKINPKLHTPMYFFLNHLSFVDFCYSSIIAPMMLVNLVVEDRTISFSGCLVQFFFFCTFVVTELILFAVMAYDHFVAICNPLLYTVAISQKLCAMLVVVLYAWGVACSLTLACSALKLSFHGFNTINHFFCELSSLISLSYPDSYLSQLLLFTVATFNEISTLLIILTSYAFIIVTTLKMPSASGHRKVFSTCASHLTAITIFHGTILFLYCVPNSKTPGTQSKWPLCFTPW
How it was run: as §1

[14] = system: T14, OR5DI
T14 sequence (whole entry): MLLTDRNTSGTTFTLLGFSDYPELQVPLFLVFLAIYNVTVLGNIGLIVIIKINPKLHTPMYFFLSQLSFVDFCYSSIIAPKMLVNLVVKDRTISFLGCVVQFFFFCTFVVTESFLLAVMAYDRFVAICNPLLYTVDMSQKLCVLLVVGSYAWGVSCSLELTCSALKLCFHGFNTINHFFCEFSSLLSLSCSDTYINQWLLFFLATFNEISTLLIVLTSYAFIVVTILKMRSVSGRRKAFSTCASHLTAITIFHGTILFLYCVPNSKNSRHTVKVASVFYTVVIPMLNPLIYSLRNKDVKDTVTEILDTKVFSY
How it was run: as §1

[15] = system: T15, OR5F1
T15 sequence (whole entry): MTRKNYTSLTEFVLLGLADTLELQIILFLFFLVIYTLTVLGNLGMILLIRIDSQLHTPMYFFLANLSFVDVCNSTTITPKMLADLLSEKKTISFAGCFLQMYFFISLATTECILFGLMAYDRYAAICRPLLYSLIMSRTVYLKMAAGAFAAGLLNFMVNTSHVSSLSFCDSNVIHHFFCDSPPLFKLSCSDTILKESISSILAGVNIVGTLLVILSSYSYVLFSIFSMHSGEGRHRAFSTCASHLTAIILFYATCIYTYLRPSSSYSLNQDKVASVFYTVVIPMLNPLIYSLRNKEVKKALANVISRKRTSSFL
How it was run: as §1

[16] = target: T16, OR5H1 (Homo sapiens) (UniProt A6NKK0)
T16 sequence (whole entry): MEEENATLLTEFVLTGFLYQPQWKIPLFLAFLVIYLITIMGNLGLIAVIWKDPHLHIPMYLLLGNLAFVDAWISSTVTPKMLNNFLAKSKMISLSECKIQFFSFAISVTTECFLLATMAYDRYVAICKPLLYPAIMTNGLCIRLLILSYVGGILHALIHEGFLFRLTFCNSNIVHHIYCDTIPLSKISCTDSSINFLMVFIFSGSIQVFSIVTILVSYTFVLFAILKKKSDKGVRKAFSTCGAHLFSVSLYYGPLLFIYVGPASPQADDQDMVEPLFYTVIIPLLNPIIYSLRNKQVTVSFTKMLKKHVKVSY
How it was run: as §1

[17] = system: T17, OR5H1
T17 sequence (whole entry): T16 sequence (whole entry) with I153L, T181I
How it was run: as §1

[18] = system: T18, OR5H2
T18 sequence (whole entry): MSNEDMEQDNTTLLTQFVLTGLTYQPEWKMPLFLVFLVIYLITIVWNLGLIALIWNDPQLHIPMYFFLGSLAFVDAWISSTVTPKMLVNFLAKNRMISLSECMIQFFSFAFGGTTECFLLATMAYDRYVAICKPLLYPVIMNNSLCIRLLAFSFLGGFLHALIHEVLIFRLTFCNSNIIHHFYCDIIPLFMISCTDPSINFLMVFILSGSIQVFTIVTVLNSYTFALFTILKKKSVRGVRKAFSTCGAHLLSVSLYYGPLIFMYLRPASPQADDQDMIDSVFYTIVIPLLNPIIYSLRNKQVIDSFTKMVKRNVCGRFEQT
How it was run: as §1

[19] = system: T19, OR5H2; remark: listed apart in the source
T19 sequence (whole entry): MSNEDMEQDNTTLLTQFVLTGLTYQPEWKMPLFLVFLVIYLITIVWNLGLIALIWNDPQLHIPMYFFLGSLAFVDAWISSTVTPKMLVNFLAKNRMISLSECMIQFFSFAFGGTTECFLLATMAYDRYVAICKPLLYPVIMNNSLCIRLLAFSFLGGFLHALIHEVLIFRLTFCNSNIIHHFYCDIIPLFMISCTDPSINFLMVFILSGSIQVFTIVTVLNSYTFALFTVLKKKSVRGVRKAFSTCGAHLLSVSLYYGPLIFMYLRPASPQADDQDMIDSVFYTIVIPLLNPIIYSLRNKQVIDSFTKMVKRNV
How it was run: as §1

[20] = system: T20, OR5H6
T20 sequence (whole entry): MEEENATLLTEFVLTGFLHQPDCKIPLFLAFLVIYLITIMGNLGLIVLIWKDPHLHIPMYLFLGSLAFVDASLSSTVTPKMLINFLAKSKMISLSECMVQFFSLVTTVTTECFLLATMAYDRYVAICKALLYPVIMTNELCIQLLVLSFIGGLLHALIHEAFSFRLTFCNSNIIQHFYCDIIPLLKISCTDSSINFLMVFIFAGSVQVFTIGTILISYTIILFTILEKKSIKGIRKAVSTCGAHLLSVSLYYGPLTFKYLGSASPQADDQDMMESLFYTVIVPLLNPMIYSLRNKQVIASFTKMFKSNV
How it was run: as §1

Measured: odorant receptor agonist call;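 further: active if original authors judged signal statistically different from baseline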

CS
inactive: all assays above
